Data as given in PubChem BioAssay AID1224830 (NIAID, 2016).
This is a random part of about 18,000 reagents tested. In the full data, about 2,900 (16%) are marked active. 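Calls are made per well; low scores hint the gene aids the LPS response, high scores that it dampens it.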 Repeated entries: four replicate wells of each siRNA pool.

Aim: 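Host factors that control LPS-induced TNF expression in human macrophages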 (primary screen)
Cells: human THP-1 monocytic leukaemia cells, TNF dual-luciferase reporter clone, PMA-differentiated to macrophage-like cells
Reagent: siRNA pool against human genes, 50 nM
Timing: LPS for 4 h, given about 3 days after siRNA transfection
Challenge: bacterial LPS (TLR4 ligand), 10 ng/ml
Detection: 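TNF firefly reporter luminescence divided by renilla, normalised to the plate median, then turned into a robust z-score for each replicate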
Direction: TNF reporter robust z-score: higher = stronger TNF reporter response to LPS
Hit rule: 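a well is active when its z-score exceeds 2.8 or falls below -1.5; control wells carry no call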

| gene symbol | TNF reporter robust z-score | outcome |
| --- | --- | --- |
| LAMC3 | 1.68 | inactive |
| LAMC3 | 3.48 | active |
| LAMC3 | 2.53 | inactive |
| LAMC3 | 1.32 | inactive |
| ARRB2 | -1.61 | active |
| ARRB2 | 0.22 | inactive |
| ARRB2 | -0.23 | inactive |
| ARRB2 | -0.53 | inactive |
| NMT1 | -0.18 | inactive |
| NMT1 | 1.73 | inactive |
| NMT1 | 0.5 | inactive |
| NMT1 | 2 | inactive |
| TMEM230 | -0.97 | inactive |
| TMEM230 | -0.99 | inactive |
| TMEM230 | -0.67 | inactive |
| TMEM230 | -0.91 | inactive |
| FUT8 | -0.35 | inactive |
| FUT8 | -0.1 | inactive |
| FUT8 | -0.71 | inactive |
| FUT8 | -0.15 | inactive |
| CENPQ | 0.39 | inactive |
| CENPQ | 0.75 | inactive |
| CENPQ | 0.06 | inactive |
| OGFOD3 | -0.32 | inactive |
| OGFOD3 | 0.56 | inactive |
| OGFOD3 | -0.03 | inactive |
| OGFOD3 | 0.02 | inactive |
| SLC17A2 | 0.66 | inactive |
| SLC17A2 | 0.85 | inactive |
| SLC17A2 | 1.4 | inactive |
| SLC17A2 | 0.69 | inactive |
| NLRC4 | -0.17 | inactive |
| NLRC4 | -1.76 | active |
| NLRC4 | -0.86 | inactive |
| NLRC4 | -0.76 | inactive |
| INKA2 | -1.11 | inactive |
| INKA2 | -0.64 | inactive |
| INKA2 | -0.93 | inactive |
| INKA2 | -0.54 | inactive |
| FAXC | -0.73 | inactive |
| FAXC | -0.88 | inactive |
| FAXC | -0.54 | inactive |
| FAXC | -1.37 | inactive |
| ADGRG7 | 0.16 | inactive |
| ADGRG7 | -0.06 | inactive |
| ADGRG7 | -0.22 | inactive |
| ADGRG7 | 0.06 | inactive |
| GPHA2 | -0.97 | inactive |
| GPHA2 | 0.18 | inactive |
| GPHA2 | -0.2 | inactive |
| GPHA2 | -0.02 | inactive |

The results go on.
| gene symbol | TNF reporter robust z-score | outcome |
| --- | --- | --- |
| STRADB | -0.38 | inactive |
| STRADB | 0.46 | inactive |
| STRADB | 0.19 | inactive |
| STRADB | -0.58 | inactive |
| COMMD7 | 1.19 | inactive |
| COMMD7 | -0.52 | inactive |
| COMMD7 | -0.02 | inactive |
| COMMD7 | -0.04 | inactive |
| MRPS10 | 3.6 | active |
| MRPS10 | 5.06 | active |
| MRPS10 | 0.93 | inactive |
| MRPS10 | 7.58 | active |
| ACSS1 | -0.32 | inactive |
| ACSS1 | 1.09 | inactive |
| ACSS1 | -0.22 | inactive |
| ACSS1 | 0.39 | inactive |
| TRIM51BP | -0.74 | inactive |
| TRIM51BP | -1.03 | inactive |
| TRIM51BP | 0.82 | inactive |
| TRIM51BP | -0.4 | inactive |
| CHD2 | 2.17 | inactive |
| CHD2 | 1.84 | inactive |
| CHD2 | 1.03 | inactive |
| CHD2 | 0.95 | inactive |
| ZNF586 | -0.77 | inactive |
| ZNF586 | -0.58 | inactive |
| ZNF586 | -0.83 | inactive |
| ZNF586 | -0.32 | inactive |
| UBL7 | -1.39 | inactive |
| UBL7 | -0.57 | inactive |
| UBL7 | -1.15 | inactive |
| UBL7 | -1.17 | inactive |
| DLL1 | 0.09 | inactive |
| DLL1 | -0.65 | inactive |
| DLL1 | -0.91 | inactive |
| DLL1 | -0.47 | inactive |
| NKAIN2 | -0.48 | inactive |
| NKAIN2 | -0.8 | inactive |
| NKAIN2 | -0.92 | inactive |
| NKAIN2 | -0.23 | inactive |
| GGT7 | 0.09 | inactive |
| GGT7 | 0.58 | inactive |
| GGT7 | -0.24 | inactive |
| GGT7 | 0.51 | inactive |
| LHX6 | -0.48 | inactive |
| LHX6 | -0.79 | inactive |
| LHX6 | -0.38 | inactive |
| LHX6 | -0.15 | inactive |
| HOXA9 | -1.21 | inactive |
| HOXA9 | -0.72 | inactive |
| HOXA9 | -1.08 | inactive |
| HOXA9 | -0.9 | inactive |
| STARD7-AS1 | 0.1 | inactive |
| STARD7-AS1 | -0.01 | inactive |
| STARD7-AS1 | 0.44 | inactive |
| STARD7-AS1 | -0.55 | inactive |
| OPTC | 0.54 | inactive |
| OPTC | -0.05 | inactive |
| OPTC | -1.1 | inactive |
| OPTC | -1.29 | inactive |
| NDNF | -0.21 | inactive |
| NDNF | 0.63 | inactive |
| NDNF | 0.68 | inactive |
| NDNF | 1.53 | inactive |
| SLC2A13 | -0.78 | inactive |
| SLC2A13 | -0.42 | inactive |
| SLC2A13 | -0.68 | inactive |
| SLC2A13 | -0.11 | inactive |
| MAMDC4 | -0.84 | inactive |
| MAMDC4 | -1.03 | inactive |
| MAMDC4 | -0.49 | inactive |
| MAMDC4 | -0.56 | inactive |
| AFMID | 0.49 | inactive |
| AFMID | -0.82 | inactive |
| AFMID | -0.48 | inactive |
| AFMID | -0.43 | inactive |
| ZNF276 | 0.04 | inactive |
| ZNF276 | 1.25 | inactive |
| ZNF276 | 0.78 | inactive |
| ZNF276 | 0.45 | inactive |
| TAS2R20 | 2.02 | inactive |
| TAS2R20 | 2.81 | active |
| TAS2R20 | 0.7 | inactive |
| TAS2R20 | 3.84 | active |
| SLCO4A1 | -0.51 | inactive |
| SLCO4A1 | -0.79 | inactive |
| SLCO4A1 | -0.22 | inactive |
| SLCO4A1 | 0.35 | inactive |
| EIF4H | -1.17 | inactive |
| EIF4H | -1.04 | inactive |
| EIF4H | -0.56 | inactive |
| EIF4H | 0.28 | inactive |
